Laboratory results: publication PMC10082843
These are yes or no findings as the source states them, for the method shown. In cells and extracts the contact can be indirect. Binding can be weak; no strength is given.

Protein sequences, listed by entry. Tags and fused reporters are not part of them. Lines headed by an entry give the natural chain unless they say otherwise; changes in a name come on top.
UniProt P07305: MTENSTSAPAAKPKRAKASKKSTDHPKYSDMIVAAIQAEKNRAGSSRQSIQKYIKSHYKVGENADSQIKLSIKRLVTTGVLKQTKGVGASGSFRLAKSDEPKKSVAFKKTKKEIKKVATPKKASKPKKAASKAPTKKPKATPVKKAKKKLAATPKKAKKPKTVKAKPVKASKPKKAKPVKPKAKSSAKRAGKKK
UniProt P10922: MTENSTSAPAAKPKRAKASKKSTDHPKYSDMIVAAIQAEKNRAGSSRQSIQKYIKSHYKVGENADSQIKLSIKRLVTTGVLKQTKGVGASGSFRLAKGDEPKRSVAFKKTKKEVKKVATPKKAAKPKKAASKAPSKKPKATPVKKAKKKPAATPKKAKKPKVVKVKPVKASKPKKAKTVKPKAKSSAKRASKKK
UniProt P25445: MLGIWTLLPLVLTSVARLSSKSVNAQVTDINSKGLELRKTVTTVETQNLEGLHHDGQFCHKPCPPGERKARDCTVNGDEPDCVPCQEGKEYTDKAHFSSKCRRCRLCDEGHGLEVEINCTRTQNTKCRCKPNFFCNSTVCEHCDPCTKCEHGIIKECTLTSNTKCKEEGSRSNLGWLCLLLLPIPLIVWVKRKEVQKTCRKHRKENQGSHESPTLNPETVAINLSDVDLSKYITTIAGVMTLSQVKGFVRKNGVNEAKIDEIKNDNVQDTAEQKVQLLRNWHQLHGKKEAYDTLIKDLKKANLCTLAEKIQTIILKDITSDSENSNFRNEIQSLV
UniProt P25446: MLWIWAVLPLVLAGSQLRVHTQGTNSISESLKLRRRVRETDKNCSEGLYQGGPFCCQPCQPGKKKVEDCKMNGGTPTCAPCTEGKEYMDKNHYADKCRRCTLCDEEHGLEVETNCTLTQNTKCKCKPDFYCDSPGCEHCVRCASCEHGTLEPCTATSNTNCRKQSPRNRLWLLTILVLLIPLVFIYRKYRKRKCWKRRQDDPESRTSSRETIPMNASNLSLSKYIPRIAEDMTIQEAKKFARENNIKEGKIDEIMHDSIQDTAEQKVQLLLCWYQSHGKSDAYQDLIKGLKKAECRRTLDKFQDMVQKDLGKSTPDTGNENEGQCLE

How the values were obtained:
[1] = molecular target: histone H1.0, human (human (endogenous in MDA-MB-231)) (UniProt P07305); assay: co-IP; cells incubated 4 h with the formulations (FKPN and controls), with or without laser (0.3 W/cm^2, 660 nm, 3 min), cultured 4 h more; lysed in RIPA buffer with phosphatase and protease inhibitors; lysates with Flag-conjugated agarose beads at 4 °C for 12 h; eluted with non-reducing sample buffer; western blot
[2] = molecular target: histone H1.0, mouse (mouse (endogenous in 4T1)) (UniProt P10922); assay: as above

| Substance | binding [1] | binding [2] |
| --- | --- | --- |
| CD95 death domain (DD), human (from UniProt P25445) (domain or fragment) | binds |  |
| CD95 death domain (DD), mouse (from UniProt P25446) (domain or fragment) |  | binds |
